In PMC11570497 (Nature Plants, 2024):
Some peptides are written in HELM: one residue between dots, names in brackets for other building blocks, links after the first $.

Assay: peptide made by a vendor
Conditions: whole synthesis

PEPTIDE1{[Dabcyl].V.K.W.F.N.N.A.K.[Edans]}$$$$V2.0
purity (crude or final not stated): 95.7%
